# In all, about 330,000 compounds went through this assay and about 7,700 (2.3%) were called active. This list was built around the results that the source calls inconclusive (neither active nor inactive); the mix of calls is not that of the screen. Calls come from the whole dose curve; as a rule, active = well fitted inhibition curve with a large enough effect; inconclusive = small, poorly fitted or top-dose-only effect, or effect the other way; inactive = flat fitted curve, though single readings scatter. Potencies beside an inconclusive call are fits to weak or partial responses and may not hold up.
# Assay: qHTS screen for small molecules that inhibit ELG1-dependent DNA repair in human embryonic kidney (HEK293T) cells expressing luciferase-tagged ELG1; note: nearly all actives have a fitted effect of over 55% in size
# Settings: HEK293T ELG1-luciferase reporter, luminescence, 16 h, DNA damage induced by 5-fluorouridine; activity change, negative = inhibition: at 46.1 µM (top of the series)
# Method in brief: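 5-Fluorouridine DNA damage + compound/DMSO, 2,000 cells/well, 16 h, 37 °C/5% CO2. ONE-Glo, 30 min RT, luminescence. Readout = decrease in reporter signal.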
# % is set by controls: 0 for no effect and ±100 for the full control effect; potency is the fitted concentration of half-maximal effect.
SMILES,Potency,"activity change, negative = inhibition"
COc1cccc(COC(=O)c2ccc3c(=O)n4c(nc3c2)CCC4)c1OC,"inconclusive: 14.6 µM [inhibitor, partial curve, poor fit]",–
COc1ccc(CCN(CC(=O)NC2CCCC2)C(=O)Cn2nnc(-c3ccc(C)o3)n2)cc1OC,"inconclusive: 23.1 µM [inhibitor, partial curve, poor fit]",–
Cc1ccn2c(NCc3ccccc3)c(-c3cccs3)nc2c1,"inconclusive: 7.3 µM [activator, partial curve]",–
CCC(C(=O)N1CCN(S(=O)(=O)c2ccc(F)cc2)CC1)c1ccccc1 (configuration not stated),"inconclusive: 3.55 µM [inhibitor, single point]",–
O=C(c1ccc(Cl)cc1)N1N=C(c2ccccn2)CC1(O)C(F)(F)F (configuration not stated),"inconclusive: 14.6 µM [inhibitor, partial curve]",–
Cc1ccc(S(=O)(=O)N2CCN(C(=O)COC(=O)CNC(=O)c3ccc(C(C)(C)C)cc3)CC2)c(C)c1,–,inactive: 0%
CCOc1ccc(C(=O)NCC(=O)OCC(=O)Nc2ccc(C)c(S(=O)(=O)N(C)C)c2)cc1,–,inactive: 14.5%
Nc1c(C(=O)Nc2ccccc2)c2nc3ccccc3nc2n1-c1ccc(O)cc1,"inconclusive: 20.6 µM [inhibitor, partial curve, poor fit]",–
COc1nsnc1NS(=O)(=O)c1ccc(NC(=S)NC(=O)c2ccncc2)cc1,–,inactive: -3.97%
N#C/C(=C(/O)CN1CCOCC1)c1nc2ccccc2s1,–,inactive: 21.9%
COc1cc(C(CC(=O)Nc2cc(C)ccn2)N2Cc3ccccc3C2=O)cc(OC)c1OC (configuration not stated),"inconclusive: 0.82 µM [inhibitor, full curve]",–
CCSc1ccccc1C(=O)N=C1NC(=O)CC2C(=O)NCCN12 (configuration not stated),–,inactive: 1.76%
O=C(NCCNC(=O)c1ccc(Cl)cc1Cl)c1cnccn1,–,inactive: 14.2%
COc1ccc(OC)c(Nc2nc(N)c([N+](=O)[O-])c(NC3CCCCC3)n2)c1,–,inactive: 3.36%
Cc1ccc(C(=O)NC(=S)Nc2cccc(NC(=O)c3ccccc3Cl)c2)cc1[N+](=O)[O-],active: 18.4 µM,–
Nc1cc2c(cc1C(=O)c1cccc(Br)c1)OCCO2,–,inactive: -10.4%
COc1cc(SC)ccc1C(=O)NCCNC(=O)c1nonc1N,–,inactive: 16%
CC(=O)c1cccc(Nc2ncnc3ccc(Br)cc23)c1,active: 18.3 µM,–
COc1ccc(C(=O)NC(=S)NCc2ccco2)cc1OC,–,inactive: -20.1%
CC(O)CNc1cnccn1 (configuration not stated),–,inactive: 15.8%
CC(Oc1ccccc1)C(=O)N1CCc2ccccc2C1 (configuration not stated),–,inactive: 2.74%
Cc1ccc(S(=O)(=O)Nc2c(C)nn(C)c2C)cc1C,–,inactive: -12.7%
CN(CCCC1CCCC1)C(=O)c1cc(COc2ccc(F)cc2F)on1,"inconclusive: 23.1 µM [activator, single point]",–
CCOC(=O)/C(=N\Nc1ncnc2ccccc12)c1ccc(OC)cc1,"inconclusive: 3.26 µM [activator, full curve]",–

# A second format for some results above:
SMILES | Potency | activity change, negative = inhibition
COc1cccc(COC(=O)c2ccc3c(=O)n4c(nc3c2)CCC4)c1OC | inconclusive: 14.6 µM [inhibitor, partial curve, poor fit] | –
COc1ccc(CCN(CC(=O)NC2CCCC2)C(=O)Cn2nnc(-c3ccc(C)o3)n2)cc1OC | inconclusive: 23.1 µM [inhibitor, partial curve, poor fit] | –

# More entries:

SMILES,Potency,"activity change, negative = inhibition"
Cn1ccc2c([N+](=O)[O-])cccc2c1=O,"inconclusive: 29.1 µM [activator, single point]",–
Cc1ccc(C(=S)N2CCN(Cc3ccccc3)CC2)cc1,"inconclusive: 20.6 µM [inhibitor, single point]",–
CCCc1cc(C(=O)NCc2ccco2)no1,"inconclusive: 20.6 µM [activator, partial curve]",–
CCOC(=O)c1ccc(NC(=O)CN2CCc3ccccc3C2)cc1,"inconclusive: 29.1 µM [inhibitor, single point]",–
O=C1CCCC/C1=N\Nc1ccc(C2CCCCC2)cc1,"inconclusive: 3.66 µM [activator, full curve]",–
Cc1nc2ncccn2c1-c1csc(Nc2ccc(S(N)(=O)=O)cc2)n1,"inconclusive: 8.2 µM [inhibitor, partial curve]",–
CC1=C(CC(=O)c2ccccc2)C(=O)c2ccccc2C1=O,"inconclusive: 9.2 µM [activator, partial curve]",–
COc1ccc(-c2noc(CCC(=O)Nc3cc(OC)ccc3OC)n2)cc1,"inconclusive: 25.9 µM [inhibitor, partial curve, poor fit]",–
CCN(CC)S(=O)(=O)c1cc(NC(=O)c2cc([N+](=O)[O-])ccc2N2CCOCC2)ccc1C,"inconclusive: 32.6 µM [inhibitor, partial curve, poor fit]",–
Cn1cnnc1SC1c2cccc3cccc(c23)C1NS(=O)(=O)c1ccc(Cl)cc1 (configuration not stated),–,inactive: -17.8%
CC(C)n1nc(C(=O)Nc2cccc(S(=O)(=O)N3CCCCC3)c2)c2ccccc2c1=O,"inconclusive: 11.6 µM [inhibitor, partial curve, poor fit]",–
CSCCC(NC(=O)c1cccc(C)c1)C(=O)OCC(=O)Nc1c(C)nn(-c2ccccc2)c1C (configuration not stated),–,inactive: 4.64%
O=C1c2ccccc2NC(c2ccc(-c3ccccc3F)o2)N1O (configuration not stated),"inconclusive: 2.06 µM [activator, full curve]",–
NC(=O)c1ccc(NC(=O)CCc2nc3ccccc3s2)cc1,–,inactive: 19.9%
Cc1cc(-c2ccc(N3CCOCC3)cc2)nc2ccccc12,"inconclusive: 2.59 µM [activator, full curve]",–
Cc1noc(C(=O)Nc2cccc(O)c2)c1Cl,"inconclusive: 20.6 µM [activator, partial curve]",–
COc1ccc(-c2ccc(SCC(=O)NCc3ccco3)nn2)cc1OC,–,inactive: 28.9%
Cc1cc(C)c(S(=O)(=O)N2CCCCC2CCNC(=O)C(=O)NCc2ccco2)c(C)c1 (configuration not stated),"inconclusive: 25.9 µM [inhibitor, partial curve, poor fit]",–
Cn1cc([N+](=O)[O-])c(C(=O)Nc2cnn(Cc3ccc(F)cc3)c2)n1,"inconclusive: 5.8 µM [inhibitor, full curve]",–
O=C(Nc1cccc(Cl)c1N1CCOCC1)c1cccs1,"inconclusive: 29.1 µM [inhibitor, single point]",–
COc1cccc2[nH]c3c(N4CCC(C(N)=O)CC4)ncnc3c12,"inconclusive: 18.4 µM [inhibitor, single point]",–
NC(=O)c1ccccc1NC(=O)/C=C/c1c(Cl)cccc1Cl,"inconclusive: 2.51 µM [activator, full curve]",–
O=C1CN(C(=O)COC(=O)CCC(=O)c2ccc(Cl)cc2)c2ccccc2N1,"inconclusive: 20.6 µM [activator, partial curve, poor fit]",–
